{"sequences": {"note": "Chains of the proteins cited; added tags and fusions are not shown.", "UniProt Q9ULQ0": "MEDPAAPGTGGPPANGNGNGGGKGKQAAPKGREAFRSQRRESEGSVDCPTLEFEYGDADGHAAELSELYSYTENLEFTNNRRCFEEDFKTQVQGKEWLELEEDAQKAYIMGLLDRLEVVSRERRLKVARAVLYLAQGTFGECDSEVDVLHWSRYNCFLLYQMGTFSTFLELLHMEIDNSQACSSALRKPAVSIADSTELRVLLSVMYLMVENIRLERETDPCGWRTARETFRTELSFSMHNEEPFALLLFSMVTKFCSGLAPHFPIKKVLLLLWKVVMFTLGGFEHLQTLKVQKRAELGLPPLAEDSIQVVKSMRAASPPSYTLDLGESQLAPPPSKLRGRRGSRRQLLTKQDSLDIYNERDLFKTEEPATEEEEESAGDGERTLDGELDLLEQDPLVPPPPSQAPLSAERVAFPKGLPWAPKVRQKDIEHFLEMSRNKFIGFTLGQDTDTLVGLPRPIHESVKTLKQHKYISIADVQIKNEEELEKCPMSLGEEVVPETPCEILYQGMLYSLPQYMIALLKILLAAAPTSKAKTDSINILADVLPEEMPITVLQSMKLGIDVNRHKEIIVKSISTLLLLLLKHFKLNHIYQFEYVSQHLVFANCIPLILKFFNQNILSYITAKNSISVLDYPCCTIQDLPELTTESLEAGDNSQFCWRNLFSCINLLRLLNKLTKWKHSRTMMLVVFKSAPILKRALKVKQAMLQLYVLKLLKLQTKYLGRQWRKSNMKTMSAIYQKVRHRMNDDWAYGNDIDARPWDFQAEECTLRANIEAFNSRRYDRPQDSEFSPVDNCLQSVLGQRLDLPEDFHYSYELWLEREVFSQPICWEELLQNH", "UniProt Q5VSL9": "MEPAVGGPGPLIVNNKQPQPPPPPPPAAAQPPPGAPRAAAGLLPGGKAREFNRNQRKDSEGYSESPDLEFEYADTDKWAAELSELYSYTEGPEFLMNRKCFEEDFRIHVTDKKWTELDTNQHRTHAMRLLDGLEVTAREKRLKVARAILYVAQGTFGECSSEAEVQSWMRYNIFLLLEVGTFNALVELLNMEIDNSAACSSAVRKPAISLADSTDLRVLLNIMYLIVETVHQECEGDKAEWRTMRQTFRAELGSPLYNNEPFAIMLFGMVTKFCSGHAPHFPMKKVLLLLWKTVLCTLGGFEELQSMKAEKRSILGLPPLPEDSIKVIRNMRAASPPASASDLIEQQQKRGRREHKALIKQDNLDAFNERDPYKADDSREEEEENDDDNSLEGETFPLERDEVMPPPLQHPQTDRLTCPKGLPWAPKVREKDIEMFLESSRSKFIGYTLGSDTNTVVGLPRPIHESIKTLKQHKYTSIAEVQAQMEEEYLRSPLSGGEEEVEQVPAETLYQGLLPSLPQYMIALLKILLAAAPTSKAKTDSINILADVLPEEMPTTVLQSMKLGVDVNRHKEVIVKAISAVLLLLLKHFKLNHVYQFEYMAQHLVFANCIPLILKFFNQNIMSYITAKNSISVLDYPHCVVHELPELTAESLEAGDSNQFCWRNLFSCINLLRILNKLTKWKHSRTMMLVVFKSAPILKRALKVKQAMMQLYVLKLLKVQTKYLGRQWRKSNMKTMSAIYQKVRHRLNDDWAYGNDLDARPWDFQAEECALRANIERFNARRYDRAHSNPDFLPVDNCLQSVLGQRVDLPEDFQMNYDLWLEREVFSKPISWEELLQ", "UniProt Q9BUL8": "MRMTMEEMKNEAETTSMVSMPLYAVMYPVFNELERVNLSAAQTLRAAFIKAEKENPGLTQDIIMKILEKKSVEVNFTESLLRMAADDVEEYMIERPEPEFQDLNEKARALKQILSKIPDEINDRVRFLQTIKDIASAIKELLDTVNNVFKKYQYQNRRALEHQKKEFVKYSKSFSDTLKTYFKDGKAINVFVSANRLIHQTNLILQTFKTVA"}, "source": "paper PMC6276190", "key": {"HA-FAM40B (human)": {"target": "HA-FAM40B (human) (UniProt Q9ULQ0)", "assay": "co-IP; COS7 cells co-transfected with pHA-FAM40A or pHA-FAM40B and pmyc-CCM3, lysed after 48 h; lysates pre-cleared with non-immune IgG agarose, incubated with mouse anti-HA agarose beads 3 h at 4 °C; washed with IP lysis buffer containing 250 mM NaCl; immunoblot with anti-myc; empty vector (pDESTHA) as control"}, "HA-FAM40A (human)": {"target": "HA-FAM40A (human) (UniProt Q5VSL9)", "assay": "co-IP; COS7 cells co-transfected with pHA-FAM40A or pHA-FAM40B and pmyc-CCM3, lysed after 48 h; lysates pre-cleared with non-immune IgG agarose, incubated with mouse anti-HA agarose beads 3 h at 4 °C; washed with IP lysis buffer containing 250 mM NaCl; immunoblot with anti-myc; empty vector (pDESTHA) as control"}}, "note": "No constants are given. Whether binding was seen depends on the method and setting. Binding seen in cells or lysates may run through a third protein. Some entries that bind do so weakly or less than the wild type.", "data": [{"substance": "myc-CCM3 (from UniProt Q9BUL8 1-212)", "values": [{"measurement": "binding", "setting": "HA-FAM40B (human)", "value": "binds"}, {"measurement": "binding", "setting": "HA-FAM40A (human)", "value": "binds"}]}]}
